Most values lie at the floor of the assay. Slopes are relative: functional sequences can read slightly below zero.
System: Saccharomyces cerevisiae PS128 hsf1 delta, HSF1(1-493) fusion
Experiment: growth estimate (transactivation domain function in HSF1 fusion, heat-shock survival) (a.u. (slope of normalised read count over time)); higher = stronger growth at 37°C, i.e. more transactivation activity
Conditions: library: random library

| Substance | growth estimate |
| --- | --- |
| STRSFTHFWS | < -0.25 |
| STRTNSLADIQGLQPRTSGI | < -0.25 |
| STSAGRAASPRIAGET | < -0.25 |
| STSFNRPERFPES | < -0.25 |
| STSLANCPVGILHGRVVWLR | < -0.25 |
| STSRGTC | < -0.25 |
| STTAQTS | < -0.25 |
| STTYFILFAIRFTLICASSV | < -0.25 |
| STVMSNLEVLLIHRYSRSRQ | < -0.25 |
| STVRLLSRRLHAGSVRASPD | < -0.25 |
| STYGLMEGKMSAAVLFMYSV | < -0.25 |
| STYSVP | < -0.25 |
| SVAARA | < -0.25 |
| SVCCKRFRRPLLCRHTIFLG | < -0.25 |
| SVCGEFTASRLVGRPHA | < -0.25 |
| SVCLDTGLEREMTS | < -0.25 |
| SVCLSGYRKRMSFRVGTRRQ | < -0.25 |
| SVDTPVSRYTVQFRVRPCA | < -0.25 |
| SVEATE | < -0.25 |
| SVENGWG | < -0.25 |
| SVESLKSPSQYRVLDSVGTL | < -0.25 |
| SVGAVATPTLW | < -0.25 |
| SVGGVAVTLTRHRPHLVVPG | < -0.25 |
| SVGGVRKTANKSALNRTLTR | < -0.25 |
| SVGLPYERAS | < -0.25 |

A few values from the entries so far.
SVEATE – growth estimate: < -0.25
SVAARA – growth estimate: < -0.25
STSRGTC – growth estimate: < -0.25
STTYFILFAIRFTLICASSV – growth estimate: < -0.25

Already shown: entries from further up.

| Substance | growth estimate |
| --- | --- |
| SVCLSGYRKRMSFRVGTRRQ | < -0.25 |
| SVDTPVSRYTVQFRVRPCA | < -0.25 |

(listing goes on)

| Substance | growth estimate |
| --- | --- |
| SVGQ | < -0.25 |
| SVGRRKNIL | < -0.25 |
| SVGVATGAGVLVVEAWSVKG | < -0.25 |
| SVGVGSVSVGSWTW | < -0.25 |
| SVGYQA | < -0.25 |
| SVHIDLLISPILPV | < -0.25 |
| SVHLLGRFGYIVGFDTQNPS | < -0.25 |
| SVHWLARTLDLAEDKKSTGP | < -0.25 |
| SVIGGPVSVAGA | < -0.25 |
| SVIRGFVAVG | < -0.25 |
| SVIRHRNFRLH | < -0.25 |
| SVKTRCKSRGKASS | -0.245 |
| SVLKCTLCTVLNLTKNSFDI | < -0.25 |
| SVLPFLNTGCDLSPA | < -0.25 |
| SVLSESIQSDLASARSRNDL | < -0.25 |
| SVMSIYATSNVASNNPINRS | < -0.25 |
| SVNDLHR | -0.245 |
| SVPACDGSFRGPHRSTAHRV | < -0.25 |
| SVPACGVYTYDHNVRCSVSV | < -0.25 |
| SVPSLAGRTIQAAFIRRSGQ | < -0.25 |
| SVPSTPTTSC | < -0.25 |
| SVPVWLLGETIVTNCLPCCP | < -0.25 |
| SVQ | < -0.25 |
| SVQAGGRMLHSTQVLGGAGE | < -0.25 |
| SVQNVVPFQIVGY | -0.25 |

| Substance | growth estimate |
| --- | --- |
| SVRHKRSLFGYARTGLTLKR | < -0.25 |
| SVRIPSEQPNSA | < -0.25 |
| SVRLSVSGALV | < -0.25 |
| SVRPDAMRFLLTRP | < -0.25 |
| SVRRRSLLIRGDVVHHANRT | < -0.25 |
| SVRSRVRGEREVVTVRIDWR | < -0.25 |
| SVSAV | < -0.25 |
| SVSCMFHILAV | < -0.25 |
| SVSEDVWH | < -0.25 |
| SVSHRTMKSQECRARLVMF | < -0.25 |
| SVSLEGEPSLTPA | < -0.25 |
| SVSM | < -0.25 |
| SVSTSARSIALDAAIYKRGL | < -0.25 |
| SVSVTVQVVKIFGPTAP | < -0.25 |
| SVTDHGYSASHAYWAIELGW | < -0.25 |
| SVTEISVMGFSCKFRLYRP | < -0.25 |
| SVTGCRLGLNTRQHGRIWQV | < -0.25 |
| SVTMGCHFKVTLWY | < -0.25 |
| SVTPVRRFEWLQCDLKLGPS | < -0.25 |
| SVV | < -0.25 |
| SVVEMLVVRTRPFTSTCQ | < -0.25 |
| SVVHTVFTSGQVSCRWRPCG | < -0.25 |
| SVVIEK | < -0.25 |
| SVVIRTILLASGILVTPVSR | < -0.25 |
| SVVRHPPNCLKRAIVRAFAP | < -0.25 |

| Substance | growth estimate |
| --- | --- |
| SVVRLSIVICTTGAGDSRSQ | < -0.25 |
| SVVSDFNSHHSLINATAV | < -0.25 |
| SVVTSREIVIYRSQGRT | < -0.25 |
| SVWG | < -0.25 |
| SVWGFFAWGGTRFKPDVCSY | 0.221 |
| SVYCH | < -0.25 |
| SVYWSVQIIRQQANYYGHWG | < -0.25 |
| SWAKRWMRIVYSIRGPVMTT | < -0.25 |
| SWAMYTTNSTPKAVVTMSTS | < -0.25 |
| SWAP | < -0.25 |
| SWCAQAPTSGRSSDSH | < -0.25 |
| SWDAGSAARDKNRCFGIPSP | < -0.25 |
| SWFKLADAARETRLGTRPSS | < -0.25 |
| SWFTPRGILDLRSLSEGTQT | < -0.25 |
| SWGSLQTACL | -0.241 |
| SWGYRYPTKTRIGLQLEWIG | < -0.25 |
| SWHVPV | < -0.25 |
| SWLLRQGVNRSGGHDVSRPT | -0.245 |
| SWLSMVNVR | < -0.25 |
| SWLVGATTP | < -0.25 |
| SWQVD | < -0.25 |
| SWQVHWLTGPI | < -0.25 |
| SWRACNCGL | < -0.25 |
| SWRSSDYVSLCGLRTGNLAG | < -0.25 |
| SWSEDVRIWTSSMYRVSTTT | < -0.25 |

| Substance | growth estimate |
| --- | --- |
| SWSIAIATTVDSRRTG | < -0.25 |
| SWSP | < -0.25 |
| SYAPAGNHVPPRQPARSEVN | < -0.25 |
| SYCNAFQ | < -0.25 |
| SYCP | < -0.25 |
| SYFLPRYDLRRAIPLCKVL | < -0.25 |
| SYGGRVECAYASAREDEASP | < -0.25 |
| SYGRGPTSETGRLMQSLMS | < -0.25 |
| SYK | < -0.25 |
| SYLASMSVLVFHKHWALVDR | < -0.25 |
| SYLRRALTDRCCAQ | < -0.25 |
| SYLSIPGNCVGRQNCRYHLN | < -0.25 |
| SYPVRRMLKVRAQSFARPTD | < -0.25 |
| SYSLNCRVVLSLRVSRPEIV | < -0.25 |
| SYTLI | < -0.25 |
| SYTRGGQYVTR | < -0.25 |
| SYVDFEVRWFTGPTNASLGR | < -0.25 |
| SYVDIPGIRAGGFPRLKSSV | < -0.25 |
| SYYVRNLI | -0.241 |
| TAA | < -0.25 |
| TAASPYVTSLPQIRLTTSDP | < -0.25 |
| TAAYIRHMRATNPHANASAL | < -0.25 |
| TAEPKYLNAPVGDIAEELSL | < -0.25 |
| TAGGSWTRPIV | -0.245 |
| TAGLNRWGVKILVRFRQE | < -0.25 |

Reprinted at random: six records from the list.

| Substance | growth estimate |
| --- | --- |
| SYCNAFQ | < -0.25 |
| TAEPKYLNAPVGDIAEELSL | < -0.25 |
| SYPVRRMLKVRAQSFARPTD | < -0.25 |
| SYTRGGQYVTR | < -0.25 |
| SYYVRNLI | -0.241 |
| SYFLPRYDLRRAIPLCKVL | < -0.25 |

(cont.)

| Substance | growth estimate |
| --- | --- |
| TAGQHLVFPISP | < -0.25 |
| TAKGTADRGTPPGHDKSYRQ | < -0.25 |
| TALRLDRIRLGTRL | < -0.25 |
| TAMVSQLVG | < -0.25 |
| TANHELTIGAPSSFGVKRSV | < -0.25 |
| TAPDVCPYYGCLAQSCDTAP | < -0.25 |
| TAPNCLAACRSWAGGFGMEP | < -0.25 |
| TAPTSPTGLAVHSYAADQSP | < -0.25 |
| TAQRRETLLDYQVGN | < -0.25 |
| TAQVPRCVGAEPRARLELEG | < -0.25 |
| TARPQGRFFCGQEDIPG | < -0.25 |
| TARVCR | < -0.25 |
| TARVLESVPKFVPPETDTRP | < -0.25 |
| TASSAVRVVLILA | < -0.25 |
| TASVGASWSLRDRTWGTNEL | < -0.25 |
| TATAGTFISPYMSAFRRVST | < -0.25 |
| TATNAELPSDSSTHKLL | < -0.25 |
| TAVKWWISWWTSSREIVIAK | < -0.25 |
| TAWYPTP | < -0.25 |
| TCC | < -0.25 |
| TCDEG | < -0.25 |
| TCDYSRPGMVRLAILLTGDD | < -0.25 |
| TCGCTLHLGRTRKRSVHRAG | < -0.25 |
| TCGYFFTVACKCRT | < -0.25 |
| TCITL | < -0.25 |

| Substance | growth estimate |
| --- | --- |
| TCLKHLPT | < -0.25 |
| TCPDRKLIFPLMSYAWVGRT | < -0.25 |
| TCPR | < -0.25 |
| TCPSYIARSAMPA | < -0.25 |
| TCRKAS | < -0.25 |
| TCRQLSQ | -0.246 |
| TCSCQ | -0.246 |
| TCVAKNGTLLSLGAGSLGSP | < -0.25 |
| TDECSGNIFLTDTGHHRSSG | < -0.25 |
| TDFQTNSGIALALRQLTARG | < -0.25 |
| TDGAVCTRHE | < -0.25 |
| TDGAYARELSLVFGCFRRSE | < -0.25 |
| TDGLCVGHNGGFNLEFTLLP | 8.16 |
| TDQNVLRSRYSTPFSPIPRS | < -0.25 |
| TDQREGPYFPVVRSVMKYR | < -0.25 |
| TDRKSHAGVQRSRFYFCSLS | < -0.25 |
| TDSLGGFWYRGERVSIPCTA | < -0.25 |
| TDSSERTEWVPLIRSFMDR | < -0.25 |
| TDTPPIARFSLGRYQYSLLP | < -0.25 |
| TDVGL | -0.245 |
| TDVNYYYAAGSLLLLYCTAR | < -0.25 |
| TDWL | < -0.25 |
| TDYVFNISITP | < -0.25 |
| TEG | < -0.25 |
| TEGQCRAWT | < -0.25 |

| Substance | growth estimate |
| --- | --- |
| TEGV | < -0.25 |
| TEKQELQVVVVAWCG | < -0.25 |
| TELGAADVAV | < -0.25 |
| TELH | < -0.25 |
| TELPDARPASKGGW | < -0.25 |
| TENPGDGGLVCATSPPALIG | < -0.25 |
| TENSHLWGDSLWGH | 0.365 |
| TERCGGHS | < -0.25 |
| TERRESPSMIKYDGVGLSVR | < -0.25 |
| TERYLSIGIGGTPGTDQPSK | < -0.25 |
| TESAIRL | < -0.25 |
| TETCLL | < -0.25 |
| TEVEGEVQISGQKPQESTTL | < -0.25 |
| TEVFPVREVKPCLRHPCR | < -0.25 |
| TEVPAPDLGRCLKGDGYI | < -0.25 |
| TEWFRSSWVPINQSRLPVSL | < -0.25 |
| TFCDSTSPCPHAKLPAEQYK | < -0.25 |
| TFDVATTPHRDTVDYYLEVE | < -0.25 |
| TFFASNEDIRLHGLRSAGC | -0.231 |
| TFFPALYKYVSS | < -0.25 |
| TFGPRKL | < -0.25 |
| TFGVTV | -0.246 |
| TFIIEEVSHVFLEGIRT | < -0.25 |
| TFMSPEGPPVVGPSSTVIKS | < -0.25 |

From the supplement of paper PMC5949888
